Experiment [1] has as its system SARS-CoV-2/MT020880. Format: cell-based.
Experiment [2] relates to SARS-CoV-2/MT020880. Type of experiment: cell-based. This is another data set of the same source.

Regarding `O=C(CCCN1CCC(O)(c2ccc(Cl)cc2)CC1)c1ccc(F)cc1` [Haloperidol], the “IC50_Viral Entry blocking assay” value with SARS-CoV-2/MT020880 [1] is “(Very wide)”. Further, the “IC-50_Viral Spread assay” value in the experiment with SARS-CoV-2/MT020880 [2] was “(Very wide)”.

Values taken from paper PMC7807167 (Methods (San Diego, Calif.), 2021).
